Where a name gives a salt, the structure may show the parent alone. Screen size: about 5,300 compounds; about 130 (2.5%) showed an effect of 50% or more. Some of the results follow.
test system: M. mycetomatis strain mm55; settings: primary screen, metabolic activity vs growth control; 96 h, 2 µM; inhibitor

| Compound | % viability [%] |
| --- | --- |
| CNCC(O)c1ccc(OC(=O)C(C)(C)C)c(OC(=O)C(C)(C)C)c1 (centres unmarked) [ONC0002955, dipivefrine] | 115.4 |
| CN(C)c1cc(CNCC(C)(C)C)c(O)c2c1C[C@H]1C[C@H]3[C@H](N(C)C)C(O)=C(C(N)=O)C(=O)[C@@]3(O)C(O)=C1C2=O [ONC0002072, omadacycline hydrochloride] | 75.84 |
| CCOc1c2c(c(OCC)c3ccccc13)C(=O)N(c1ccc(CC(=O)NS(=O)(=O)c3ccccc3)cc1)C2 [ONC0001689, gw627368] | 54.29 |
| CCN(CC)CCc1nc(-c2ccccc2)no1 [ONC0005613, oxolamine citrate] | 99.68 |
| Cc1cc(-c2nncc3c(C(C)(C)C)c(OCc4ncnn4C)nn23)no1 [ONC0001442, mrk016] | 79.32 |
| CC(C)[C@@H](CN1CC[C@@](C)(c2cccc(O)c2)[C@@H](C)C1)NC(=O)[C@H]1Cc2ccc(O)cc2CN1 [ONC0001323, jdtic dihydrochloride] | 64.8 |
| NC(=O)c1nc(F)c[nH]c1=O [ONC0003386, favipiravir] | 85.13 |
| CC(C)NC[C@@H](O)COc1cccc2ccccc12 [ONC0002707, propranololr] | 75.93 |
| CCc1cn([C@H]2C[C@H](O)[C@@H](CO)O2)c(=O)[nH]c1=O [ONC0002853, edoxudine] | 105.9 |
| OC[C@H]1O[C@H](O)[C@H](O)[C@@H](O)[C@@H]1O [ONC0005330, alphadglucopyranose] | 104.4 |
| CCCCCCCCNC(=O)/C(C#N)=C/c1cn(CCCN(C)C)c2ccccc12 [ONC0001410, dynole342] | 58.4 |
| Ac-PHSCN-NH2 [ONC0000745, atn161 trifluoroacetate salt] | 72.86 |
| CC1(C)C(=O)N=C2C1=C(O)C(=O)c1ccccc12 [ONC0000022, bvt948] | 75.29 |
| CCC(C)N(C)C(=O)c1cc2ccccc2c(-c2ccccc2Cl)n1 (centres unmarked) [ONC0003008, pk11195] | 87.3 |
| COc1cc2c(cc1C(F)(F)F)N(C(=O)Nc1cc(F)cc(-c3cccnc3)c1)CC2 [ONC0001434, sb228357] | 91.99 |
| Cc1cccc([C@H](C)c2cnc[nH]2)c1C [ONC0002578, dexmedetomidine] | 93.94 |
| CC1(C)CCC(C)(C)c2cc(Cn3cccn3)c(/C=C/c3ccc(C(=O)O)cc3)cc21 [ONC0001101, palovarotene] | 51.36 |
| CCNC(=O)NS(=O)(=O)c1sc(CC(C)C)cc1-c1ccc(Cn2c(-c3ccccc3)nc(OC)c2C=O)cc1 [ONC0000768, ave 0991] | 77.34 |
| CC(=O)CC(=O)O [ONC0002746, lithium acetoacetate] | 87.82 |
| CC(C)(Cc1c[nH]c2ccc(Cl)cc12)NCCOc1ccccc1OCC1CC1 [ONC0001874, rs17053] | 102.3 |
| CN1C(=O)/C(=C2/C(=O)Nc3ccccc32)c2ccccc21 [ONC0000755, meisoindigo] | 81.88 |

| Compound | % viability [%] |
| --- | --- |
| Nc1nc2ccc(Cl)cc2c2nc(-c3ccco3)nn12 [ONC0002662, cgs15943] | 75.04 |
| Cc1ccc(C[N+](C)(C)C)o1 [ONC0001794, 5methylfurmethiodide] | 113.2 |
| CCOC(=O)Nc1cc(-c2ccc(C)c(NS(C)(=O)=O)c2)nn2c(C)nnc12 [ONC0005187, bromosporine] | 72.52 |
| CS(=O)(=O)Nc1ccc2oc3c(OC(F)F)ccc(C(=O)Nc4c(Cl)cncc4Cl)c3c2c1 [ONC0000891, oglemilast] | 62.29 |
| Cc1cc2c(F)c(Oc3ncnn4cc(OC[C@@H](C)OC(=O)[C@H](C)N)c(C)c34)ccc2[nH]1 [ONC0004738, brivanib alaninate bms582664] | 99.27 |
| CC(NCCC(c1ccccc1)c1ccccc1)c1ccccc1 (centres unmarked) [ONC0001878, fendiline] | 72.6 |
| CC(=O)OC1[C@@H](N2CC[N+](C)(C)CC2)C[C@H]2[C@@H]3CC[C@H]4C[C@H](OC(C)=O)[C@@H](N5CC[N+](C)(C)CC5)C[C@]4(C)[C@H]3CC[C@]12C (some centres unmarked) [ONC0001992, pipecuronium] | 103.5 |
| CCc1cccc(CC)c1NC1=NCCN1 [ONC0003558, st91] | 106.8 |
| C[C@@H]1CCN(C(=O)CC#N)C[C@@H]1N(C)c1ncnc2[nH]ccc12 [ONC0005042, tofacitinib cp690550 tasocitinib] | 82.74 |
| CC(=O)C(=Cc1cc(O)c(O)c([N+](=O)[O-])c1)C(C)=O [ONC0003792, nitecapone] | 63.44 |
| C#CC[C@H](c1nc2cc(Cl)ccc2c(=O)n1Nc1ccccc1)N(CCCN)C(=O)c1cccc(Cl)c1F [ONC0004318, arq 621] | 92.5 |
| Cc1c(N(C)CS(=O)(=O)O)c(=O)n(-c2ccccc2)n1C [ONC0002840, dipyrone] | 91.28 |
| O=C(/C=C/c1ccc(O)c(O)c1)OCCc1ccccc1 [ONC0003026, caffeicacidphenethylester] | 130 |
| C=CC(=O)Nc1cccc(Oc2nc(Nc3ccc(N4CCN(C)CC4)cc3OC)ncc2Cl)c1 [ONC0004856, wz4002] | 102 |
| NCC(O)CC(=O)O (stereo not drawn) [ONC0002878, threonine dl] | 95.1 |
| CC(=O)OCC(CCn1cnc2cnc(N)nc21)COC(C)=O [ONC0003937, famciclovir] | 73.29 |
| NNc1nncc2ccccc12 [ONC0000426, hydralazine hydrochloride] | 61.24 |
| CCCCC(F)(F)C(=O)CC[C@H]1[C@H](O)CC(=O)[C@@H]1CCCCCCC(=O)O [ONC0004918, lubiprostone] | 115.4 |
| O=c1c2c[nH]c3ccccc3c-2nn1-c1ccc(Cl)cc1 [ONC0002892] | 107.8 |
| O=C(O)C(O)c1ccccc1 (centres unmarked) [ONC0003755, mandelicacid] | 132.5 |
| C[C@H](CCC(=O)O)[C@H]1CC[C@H]2[C@@H]3[C@H](O)C[C@@H]4C[C@H](O)CC[C@]4(C)[C@H]3CC[C@]12C [ONC0004922, chenodeoxycholic acid] | 117.1 |

Not a retest: an excerpt of the list.

| Compound | % viability [%] |
| --- | --- |
| CN(C)c1cc(CNCC(C)(C)C)c(O)c2c1C[C@H]1C[C@H]3[C@H](N(C)C)C(O)=C(C(N)=O)C(=O)[C@@]3(O)C(O)=C1C2=O [ONC0002072, omadacycline hydrochloride] | 75.84 |
| CCOc1c2c(c(OCC)c3ccccc13)C(=O)N(c1ccc(CC(=O)NS(=O)(=O)c3ccccc3)cc1)C2 [ONC0001689, gw627368] | 54.29 |
| CCN(CC)CCc1nc(-c2ccccc2)no1 [ONC0005613, oxolamine citrate] | 99.68 |
| Cc1cc(-c2nncc3c(C(C)(C)C)c(OCc4ncnn4C)nn23)no1 [ONC0001442, mrk016] | 79.32 |

The listing continues.

| Compound | % viability [%] |
| --- | --- |
| C[N+](C)(C)CC[N+]1(C)Cc2c(Cl)c(Cl)c(Cl)c(Cl)c2C1 [ONC0002618, chlorisondaminediiodide] | 64.5 |
| CN1CCN(c2c(F)cc3c(=O)c(C(=O)O)cn(CCF)c3c2F)CC1 [ONC0004503, fleroxacin quinodis] | 59.51 |
| CC[C@H](C)C(=O)O[C@H]1CCC=C2C=C[C@H](C)[C@H](CC[C@@H]3C[C@@H](O)CC(=O)O3)[C@H]21 [ONC0005466, mevastatin] | 127.1 |
| Cc1ccc2c(c1)C(=O)C1(O)CCN(c3ccccc3)C1=N2 (centres unmarked) [ONC0001527, blebbistatin] | 80.1 |
| NCCNS(=O)(=O)c1ccc(Cl)c2ccncc12 [ONC0003525, cki7] | 94.56 |
| CC/C(=C(\c1ccc(OCCN(C)C)cc1)c1cccc(O)c1)c1ccccc1 [ONC0002789] | 112.1 |
| O=C(NCCN1CCC2(CC1)C(=O)NCN2c1cccc(F)c1)c1ccc2ccccc2c1 [ONC0001715, vu0364739] | 108.4 |
| COc1ccc(CCN(C)CCCC(C#N)(c2cc(OC)c(OC)c(OC)c2)C(C)C)cc1OC (centres unmarked) [ONC0001960, ü¾Œ–ˆ¼methoxyverapamil hydrochloride] | 121.1 |
| Nc1cc(C(Cl)=C(Cl)Cl)c(S(N)(=O)=O)cc1S(N)(=O)=O [ONC0005084, clorsulon] | 94.31 |
| CC1=NN(c2ccc(C)c(C)c2)C(=O)/C1=N/Nc1cccc(-c2cccc(C(=O)O)c2)c1O [ONC0004936, eltrombopag olamine] | 85.22 |
| COc1c2occc2c(OC)c2c(=O)cc(C)oc12 [ONC0003336, khellin] | 80.08 |
| N[C@@H]1c2cccnc2[C@H](OC(=O)N2CCC(n3c(=O)[nH]c4ncccc43)CC2)CC[C@H]1c1cccc(F)c1F [ONC0000746, rimegepant] | 60.53 |
| CS(=O)(=O)N1CCc2c(-c3cnc(N)nc3)nc(N3CCOCC3)nc21 [ONC0004974] | 80.5 |
| Cn1ccc2cc(NC(=O)Nc3cccnc3)ccc21 [ONC0001773, sb200646] | 112.2 |
| O=c1oc2ccccc2c(O)c1Cc1c(O)c2ccccc2oc1=O [ONC0000533, dicumarol] | 83.84 |
| CN1C(CSCC(F)(F)F)Nc2cc(Cl)c(S(N)(=O)=O)cc2S1(=O)=O (centres unmarked) [ONC0001953, polythiazide] | 124.5 |
| CC(=O)[C@]1(O)Cc2c(O)c3c(c(O)c2[C@@H](O[C@H]2C[C@H](N)[C@H](O)[C@H](C)O2)C1)C(=O)c1ccccc1C3=O [ONC0004533, idarubicin hcl] | 43.23 |
| CSc1ccc([C@H]2CN3CCC[C@H]3c3ccccc32)cc1 [ONC0000925, mcn5652] | 74.54 |
| Cn1c(NC[C@@H](N)Cc2ccccc2)nc(-c2ccncc2)c(-c2ccc3ccccc3c2)c1=O [ONC0000241, amg548] | 91.5 |
| c1ccc(CNc2nc(NCc3ccccc3)c3ccccc3n2)cc1 [ONC0005130, dbeq] | 90.83 |

— PMC12670160, “A drug-repurposing screen of FDA- and EMA-approved drugs identifies two NF-κB inhibitors active against eumycetoma” (Journal of Antimicrobial Chemotherapy, 2025)
